From publication PMC10987111 (Advanced Science, 2024)

Experiment: general procedure: solution-phase peptide synthesis; EDC·HCl, HOBT, DIPEA

Substance: benzyl (S)-1-((11-benzyl-3,6,9,12,15-pentaoxo-1-phenyl-2-oxa-4,7,10,13,16-pentaazaheptadecan-17-yl)oxy)cyclobutane-1-carboxylate
- step yield (coupling step): 34.2%

Substance: 1-(((S)-7-benzyl-20-(2,5-dioxo-2,5-dihydro-1H-pyrrol-1-yl)-3,6,9,12,15-pentaoxo-2,5,8,11,14-pentaazaicosyl)oxy)-N-((1S,9S)-9-ethyl-5-fluoro-9-hydroxy-4-methyl-10,13-dioxo-2,3,9,10,13,15-hexahydro-1H,12H-benzo[de]pyrano[3',4':6,7]indolizino[1,2-b]quinolin-1-yl)cyclobutane-1-carboxamide
- conjugation yield (conjugation step): 31.8%
